The assay is described as follows: qHTS Assay for Lipid Storage Modulators in Drosophila S3 Cells.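 As to cell number change: cells counted by Cell Tracker Red CMTPX staining in the red channel.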 As to conditions: BODIPY lipid droplet fluorescence, 18-24 h; for cell number change: measured here: cell count max response, cells fed with added oleic acid. The procedure, abridged: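 Drosophila S3 cells loaded with oleic acid (400 uM, as added) and compounds at several concentrations; lipid droplets imaged by 488-nm laser-scanning cytometry, 500–530 nm intensity and object ratio to cell channel. Percent activity normalized to 20 uM Triacsin C.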

Where [1] appears, read: measured here: cell number channel AC50, cells fed with added oleic acid.
Setting [2] is: measured here: lipid fluorescence (Fed channel) AC50, cells fed with added oleic acid.

The list shows a part of the results. Shown are side measurements of this screen, not its main read-out; they come without a call. The list favours compounds with an active or inconclusive main result. The note in brackets gives the kind of curve behind each potency; many fits are weak.

Turning to `CC(C)c1nc(CNC(=O)C2CCC(=O)N(CCc3cccc(F)c3)C2)cs1` (stereo not drawn), the cell number change was -7.23%.

A word on the AC50: it is the concentration at which the activity in the assay is half-maximal. In the case of `COc1ccc(S(=O)(=O)Nc2cc(C)nn2-c2ccccc2)cc1`, the cell number change is 34.3%. The AC50 under setting [1] was 9.2 µM [rising, single point].

Turning to `CCOc1ccc(C(=O)OCC(=O)Nc2ccc(SC(F)F)cc2)cc1OCC`, the cell number change is 16.1%. Moreover, the AC50 under setting [2] was 14.6 µM [rising, partial curve].

In the case of `CC(=C/c1ccccc1)/C=N/n1c(-c2ccncc2)n[nH]c1=S`, the cell number change is -9.12%.

`COc1cccc(-c2[nH]nc3c2C(c2ccoc2)C(C#N)=C(N)O3)c1` (stereo not drawn): the AC50 was 1.84 µM [rising, partial curve] under setting [1] and 4.11 µM [rising, partial curve] under setting [2].

`COc1ccc(S(=O)(=O)Nc2ccc3c(c2)n(C)c(=O)n3C)cc1OC`: the cell number change was -31.4%. In addition, the AC50 under setting [1] was 11.6 µM [falling, partial curve, poor fit]. Also, the AC50 under setting [2] is 29.1 µM [falling, single point].

Consider `CC(=O)Nc1ccc(NC(=O)CSc2nc3nc(C)cc(C)c3c(=O)[nH]2)cc1`, for which the cell number change is 15.9%. The AC50 under setting [2] was 2.59 µM [rising, full curve].

For `CCOc1cc(N2CCOCC2)c(OCC)cc1NC(=O)COC(=O)c1ccccc1C`, the cell number change worked out at 4.83%. Further, the AC50 under setting [1] was 0.326 µM [rising, full curve, poor fit].

Take `CC(C(=O)Nc1nc(-c2ccc(F)c(F)c2)cs1)N1C(=O)C2CC=CCC2C1=O` (stereo not drawn): the cell number change was -24.1%. Also, the AC50 under setting [2] is 5.8 µM [falling, single point].

Regarding `O=C(CCCN1C(=O)/C(=C/c2ccccc2)SC1=S)NCCCn1ccnc1`, the cell number change is 0.472%. For the same compound, the AC50 under setting [2] was 2.91 µM [falling, single point].

Turning to `CN(C)/C=C/C(=O)c1ncc(C(F)(F)F)cc1Cl`, the cell number change was -44.6%. Besides, the AC50 under setting [1] was 0.231 µM [falling, full curve, poor fit]. Besides, the AC50 under setting [2] is 1.3 µM [falling, full curve].

As for `O=C(O)c1cc(-c2ccc(/C=N/NC(=S)Nc3ccccc3)o2)ccc1Cl`, the cell number change was 19.1%. Further, the AC50 under setting [1] was 6.51 µM [falling, single point].

For `COc1cccc(NC(=O)CN2CCSc3ccccc32)c1`, the cell number change came to 13.9%. In addition, the AC50 under setting [1] was 4.11 µM [rising, single point].

Consider `COc1ccc(CNC(=O)C2CCC(=O)N(CCCN3CCCC3=O)C2)cc1` (stereo not drawn), for which the cell number change was 24.6%. For the same compound, under setting [2], the AC50 was 29.1 µM [rising, single point].

As to `CC(C)(C)S(=O)(=O)c1cnc2c(S(=O)(=O)c3ccccc3)cnn2c1N`, the cell number change amounted to 6.26%.

As to `CCC(=O)Nc1cc(C(=O)NCC2CCCN2CC)c(OC)cc1N(C)C` (stereo not drawn), the AC50 under setting [2] was 3.66 µM [falling, single point].

Regarding `COc1ccccc1N(C(=O)c1ccco1)C(C(=O)NC1CCCC1)c1cccnc1` (stereo not drawn), the cell number change was 31.4%. The AC50 under setting [1] was 3.26 µM [rising, partial curve].

Turning to `O=C(COc1ccc([N+](=O)[O-])cc1)N(C1CCCCC1)C1CCS(=O)(=O)C1` (stereo not drawn), the cell number change amounted to 45.4%. Under setting [1], the AC50 was 25.9 µM [rising, single point].

`O=C1/C(=N\S(=O)(=O)c2cccs2)C([n+]2cccc(Cc3ccccc3)c2)=C([O-])c2ccccc21`: the AC50 under setting [2] was 16.4 µM [falling, partial curve].

For the compound `COc1cccc(C(=O)CC(=O)C(=O)Nc2cc(OC)ccc2OC)c1`, the cell number change was found to be 5.85%. The AC50 under setting [2] is 0.651 µM [rising, full curve].

On to `c1ccc(-c2nnc(CSc3nncs3)o2)cc1`, for which the cell number change amounted to 315%. In addition, the AC50 under setting [1] is 29.1 µM [rising, partial curve]. In addition, the AC50 under setting [2] was 29.1 µM [rising, partial curve].

For the compound `COC(=O)c1cccc(S(=O)(=O)N(Cc2ccco2)Cc2cc3cc(OC)c(OC)cc3[nH]c2=O)c1`, the cell number change was -0.483%. Besides, the AC50 under setting [1] was 1.64 µM [rising, partial curve]. In addition, the concentration at half-maximal activity (AC50) under setting [2] was 1.64 µM [rising, full curve].

With `Nc1nc(SCc2ccc(Cl)cc2Cl)ns1`, the cell number change is -51.1%. The AC50 under setting [1] was 29.1 µM [falling, single point]. For the same compound, the AC50 under setting [2] was 29.1 µM [falling, single point].

Take `COc1ccc(/C=N/n2cc(-c3ccccc3)nc2N)cc1`: under setting [2], the AC50 was 0.13 µM [rising, full curve, poor fit].

With `CCSc1nnc(NC(=O)CN2C(=O)N(C)C3(CCCCC3)C2=O)s1`, the AC50 is 5.8 µM [falling, single point] under setting [1] and 4.11 µM [falling, single point] under setting [2].

For `Cc1nonc1OCCNc1ccc([N+](=O)[O-])cc1`, the cell number change is -10.8%. For the same compound, the AC50 under setting [2] was 20.6 µM [rising, partial curve, poor fit].

Turning to `NC(=O)N/N=C1\CCS(=O)(=O)c2ccc(F)cc21`, the cell number change came out at 32.6%. Besides, under setting [1], the AC50 is 0.00517 µM [rising, full curve, poor fit]. Moreover, the half-maximal activity concentration (AC50) under setting [2] was 29.1 µM [rising, single point].

For the compound `O=Cc1ccc(OCc2nnsc2Cl)cc1`, the cell number change is -10%. For the same compound, under setting [2], the AC50 is 4.11 µM [falling, full curve, poor fit].

For the compound `NC(=O)COC(=O)CNC(=O)c1ccc(Cl)cc1`, the cell number change is -16.8%. The AC50 under setting [2] was 0.00461 µM [falling, full curve, poor fit].

In the case of `C=CCNc1nnnc2c1sc1nc(N3CCOCC3)c3c(c12)CCCC3`, the cell number change stood at 8.42%. Besides, the AC50 under setting [2] was 3.26 µM [rising, partial curve, poor fit].

On to `O=C(NCc1ccco1)c1ccc([N+](=O)[O-])cc1Cl`, for which the cell number change turned out to be 28.2%. Further, the AC50 under setting [2] is 29.1 µM [rising, single point].

Turning to `Cn1c(=O)c(NCCc2ccccc2)c2c3c(cccc31)C(=O)c1ccccc1-2`, the cell number change was -99.8%.

Regarding `O=C(NCCSc1ccccc1)c1ccccc1`, the cell number change came to 9.06%. Also, the AC50 under setting [2] was 16.4 µM [rising, single point].

`Cc1ccc(N=C2NC(=O)c3cc([N+](=O)[O-])ccc32)cc1`: the cell number change stood at 11.4%. Moreover, the AC50 under setting [2] is 20.6 µM [rising, partial curve, poor fit].

On to `CCOC(=O)C1=NOC(C(=O)NN(C)c2ncc(C(F)(F)F)cc2Cl)C1` (stereo not drawn), for which the cell number change is -39.5%. In addition, the AC50 under setting [1] was 13 µM [falling, partial curve, poor fit]. In addition, the AC50 under setting [2] was 23.1 µM [falling, single point].

With `Fc1ccccc1CSc1nnc(Cn2cnc3ccccc32)n1-c1ccccc1`, the cell number change was -11.1%. Also, the AC50 under setting [2] is 1.16 µM [falling, partial curve].

As to `O=C(CSc1nnc(C2COc3ccccc3O2)o1)N1CCCC1` (stereo not drawn), the AC50 by setting is: under setting [1], 0.92 µM [falling, full curve]; under setting [2], 0.146 µM [falling, full curve, poor fit].

Turning to `CC(C)C(=O)Nc1nnc(-c2ccccc2)o1`, the cell number change is -21.8%. In addition, under setting [2], the AC50 was 2.06 µM [falling, partial curve, poor fit].

Consider `N#Cc1c(-c2ccccc2)[nH]c(=S)[nH]c1=O`, for which the cell number change is -25.8%. Moreover, the AC50 under setting [2] was 0.259 µM [falling, full curve, poor fit].

For the compound `CN(C)c1ccc(CNC(=O)c2cc(S(=O)(=O)N3CCCC3)cn2C)cc1`, the cell number change is 6.63%.

Consider `O=C(Nc1ccc(N2CCN(C(=O)c3ccco3)CC2)cc1)c1cccc(F)c1`, for which the cell number change was -22.4%. In addition, the AC50 under setting [2] was 9.2 µM [falling, partial curve, poor fit].

As for `CC(C)(C)NC(=O)NC(=O)CSc1n[nH]c(-c2ccccc2Br)n1`, the cell number change is 18.1%.

For the compound `Cc1cccc(-n2cc3c(=O)n(C)c(=O)n(C)c3c2)c1`, the cell number change was -3.62%.

For the compound `COc1cccc(-n2nnnc2SCC(=O)Nc2cccc(C)n2)c1`, the cell number change is -7.19%.

Consider `O=C(CN1C(=O)NC2(CCc3ccccc32)C1=O)NCCc1ccccc1` (stereo not drawn), for which the cell number change came out at 0.979%. Under setting [2], the AC50 is 6.51 µM [falling, single point].

On to `C=C(C)COc1ccc2c(C)c(CCC(=O)N3C[C@H]4C[C@@H](C3)c3cccc(=O)n3C4)c(=O)oc2c1`, for which the cell number change was 14.9%. Further, the half-maximal activity concentration (AC50) under setting [2] is 0.58 µM [rising, single point].

On to `Cc1cccc(NC(=S)NNC(=O)c2ccccc2Br)c1`, for which the cell number change was -22.8%. Under setting [1], the AC50 is 1.3 µM [falling, single point]. For the same compound, the AC50 under setting [2] is 6.51 µM [falling, single point].

Regarding `O=C(NCc1ccc(Cl)cc1)c1ccc(OCC2CCCO2)cc1` (stereo not drawn), the cell number change was 20.7%. Besides, the AC50 under setting [2] was 9.2 µM [rising, partial curve].

Regarding `Cc1ccc2nc(NC(=O)c3cccc(-c4cc5ccccc5oc4=O)c3)sc2c1`, the cell number change came to 9.9%. Also, the AC50 under setting [1] is 3.26 µM [rising, single point].

For `COc1ccccc1N1CCN(C(c2ccc(Cl)cc2)c2nnnn2C(C)(C)C)CC1` (stereo not drawn), the cell number change is -43.9%. Under setting [1], the AC50 was 1.46 µM [falling, full curve]. In addition, the AC50 under setting [2] is 29.1 µM [falling, partial curve].

Consider `S=C1SCN(Cc2cccnc2)CN1Cc1cccnc1`, for which the cell number change was -15.8%. Under setting [1], the AC50 is 0.731 µM [falling, full curve, poor fit]. Besides, the AC50 under setting [2] is 0.00517 µM [falling, full curve, poor fit].

`O=C(CCNC(=O)c1ccc(Br)cc1)NCCCSc1ccccc1`: the cell number change worked out at 14.1%.

Take `O=C(NCc1ccco1)C(c1ccccc1)N(Cc1cccnc1)C(=O)Cn1nnc2ccccc21` (stereo not drawn): the cell number change is -5.45%. Moreover, under setting [2], the AC50 is 0.731 µM [rising, full curve].

For `Nn1c(SCCOc2ccccc2)nnc1-c1cccnc1`, the cell number change is 17.2%. The AC50 under setting [2] is 5.17 µM [rising, partial curve, poor fit].

Turning to `CN(C)/C=C1\SC(=S)N(c2ccc(Br)cc2)C1=O`, the cell number change was -95.3%. Besides, under setting [1], the AC50 is 29.1 µM [falling, single point]. Moreover, the AC50 under setting [2] is 23.1 µM [falling, partial curve].

With `O=C(Nc1cccc(F)c1)C1CCN(C(=O)Cc2ccccc2)CC1`, the cell number change stood at 7.74%. Under setting [2], the AC50 is 29.1 µM [rising, single point].

Take `N#C/C(=C(/O)CCl)c1nnc2n1CCCCC2`: the cell number change is -24.6%. Besides, under setting [1], the AC50 is 6.51 µM [falling, single point]. Further, the AC50 under setting [2] is 6.51 µM [falling, single point].

With `Cc1ccccc1OCCC(=O)OCC(=O)NC1CCCCC1`, the cell number change was determined as 4.34%. Moreover, the AC50 under setting [2] was 29.1 µM [falling, single point].

As for `Cc1ccc(NS(=O)(=O)c2ccc(NC(=O)c3cccc(NC(=O)C(C)C)c3)cc2)cc1`, the cell number change was 11.9%. Further, the AC50 under setting [2] was 29.1 µM [rising, single point].

The record behind these values is PubChem BioAssay AID2685 (National Center for Advancing Translational Sciences (NCATS), 2010).
